# Measurements reported in the supplement of paper PMC12067093, “Discovery and optimisation of a covalent ligand for TRIM25 and its application to targeted protein ubiquitination” (Chemical Science, 2025).
# Some of the results follow.
# Columns and labels:
# [1] = biological target: CLIC1_O00299_191_LHIVQVVCK (UniProt O00299); experiment: probe-labelled cysteine peptide fold change vs DMSO (competition) (log2 fold change); higher = less target engagement (more negative = stronger competition); settings: THP-1, incubation time: 4 h
# [2] = biological target: CLIC1_O00299_191_LHIVQVVCKK (UniProt O00299); experiment: as above; settings: THP-1, incubation time: 4 h
# 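Note: competitive profiling in live THP-1 cells: cysteine peptides tagged with an iodoacetamide desthiobiotin (IA-DTB) probe, intensity after compound treatment relative to DMSO-treated cells.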
compound,measurement,setting,value
Cc1cc(C(=O)N2CCCN(C(=O)CCl)CC2)ccc1-c1ccccc1 [compound 10],probe-labelled cysteine peptide fold change,[1]; 10 µM,-0.167
same,probe-labelled cysteine peptide fold change,[1]; 50 µM,-0.106
same,probe-labelled cysteine peptide fold change,[2]; 10 µM,-0.224
same,probe-labelled cysteine peptide fold change,[2]; 50 µM,-0.78
